# Laboratory results from the supplement of paper PMC12823440, “Inhibitors supercharge kinase turnover through native proteolytic circuits” (Nature, 2025).
# Chains of the proteins cited; added tags and fusions are not shown. Lines headed by an entry give the natural chain unless they say otherwise; changes in a name come on top.
# UniProt P00519, whole entry: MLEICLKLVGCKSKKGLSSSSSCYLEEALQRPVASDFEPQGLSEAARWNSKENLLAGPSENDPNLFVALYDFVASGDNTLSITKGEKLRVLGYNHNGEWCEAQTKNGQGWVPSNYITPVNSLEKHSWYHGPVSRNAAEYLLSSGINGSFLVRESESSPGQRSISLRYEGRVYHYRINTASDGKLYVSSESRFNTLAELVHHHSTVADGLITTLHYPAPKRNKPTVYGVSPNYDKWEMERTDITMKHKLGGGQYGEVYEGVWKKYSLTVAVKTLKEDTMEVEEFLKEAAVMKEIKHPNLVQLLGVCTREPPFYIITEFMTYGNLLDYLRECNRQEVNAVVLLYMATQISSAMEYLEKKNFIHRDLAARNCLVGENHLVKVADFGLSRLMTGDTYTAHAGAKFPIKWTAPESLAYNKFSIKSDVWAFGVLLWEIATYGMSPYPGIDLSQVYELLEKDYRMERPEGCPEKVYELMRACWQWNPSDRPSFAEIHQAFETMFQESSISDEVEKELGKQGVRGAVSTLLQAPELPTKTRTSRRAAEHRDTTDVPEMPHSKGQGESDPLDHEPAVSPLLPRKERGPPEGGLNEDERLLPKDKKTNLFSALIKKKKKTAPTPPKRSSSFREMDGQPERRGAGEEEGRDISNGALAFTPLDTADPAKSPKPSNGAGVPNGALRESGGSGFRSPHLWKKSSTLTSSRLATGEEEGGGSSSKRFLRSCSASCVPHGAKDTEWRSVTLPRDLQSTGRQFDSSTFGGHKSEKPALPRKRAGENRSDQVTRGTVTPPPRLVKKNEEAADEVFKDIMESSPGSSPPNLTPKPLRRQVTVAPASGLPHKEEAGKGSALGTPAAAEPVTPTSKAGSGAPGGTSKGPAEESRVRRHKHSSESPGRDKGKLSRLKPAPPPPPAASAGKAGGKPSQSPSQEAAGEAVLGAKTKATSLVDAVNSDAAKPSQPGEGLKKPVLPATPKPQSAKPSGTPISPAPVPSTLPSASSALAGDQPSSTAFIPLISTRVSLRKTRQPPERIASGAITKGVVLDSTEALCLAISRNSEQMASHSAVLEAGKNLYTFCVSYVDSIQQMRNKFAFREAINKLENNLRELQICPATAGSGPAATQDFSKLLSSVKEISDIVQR
# UniProt P31749: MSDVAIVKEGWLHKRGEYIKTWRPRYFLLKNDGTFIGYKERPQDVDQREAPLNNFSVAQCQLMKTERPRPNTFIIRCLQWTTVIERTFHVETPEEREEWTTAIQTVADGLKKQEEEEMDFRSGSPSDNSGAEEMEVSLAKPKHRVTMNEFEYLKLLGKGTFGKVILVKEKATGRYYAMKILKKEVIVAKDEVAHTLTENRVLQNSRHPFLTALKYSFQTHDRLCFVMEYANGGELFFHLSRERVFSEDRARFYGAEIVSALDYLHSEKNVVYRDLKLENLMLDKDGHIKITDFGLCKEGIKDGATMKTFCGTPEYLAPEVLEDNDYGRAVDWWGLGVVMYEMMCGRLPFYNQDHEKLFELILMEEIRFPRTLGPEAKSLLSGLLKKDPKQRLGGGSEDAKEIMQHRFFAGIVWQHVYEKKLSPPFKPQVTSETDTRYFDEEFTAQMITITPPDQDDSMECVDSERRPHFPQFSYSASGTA
# UniProt Q9UM73: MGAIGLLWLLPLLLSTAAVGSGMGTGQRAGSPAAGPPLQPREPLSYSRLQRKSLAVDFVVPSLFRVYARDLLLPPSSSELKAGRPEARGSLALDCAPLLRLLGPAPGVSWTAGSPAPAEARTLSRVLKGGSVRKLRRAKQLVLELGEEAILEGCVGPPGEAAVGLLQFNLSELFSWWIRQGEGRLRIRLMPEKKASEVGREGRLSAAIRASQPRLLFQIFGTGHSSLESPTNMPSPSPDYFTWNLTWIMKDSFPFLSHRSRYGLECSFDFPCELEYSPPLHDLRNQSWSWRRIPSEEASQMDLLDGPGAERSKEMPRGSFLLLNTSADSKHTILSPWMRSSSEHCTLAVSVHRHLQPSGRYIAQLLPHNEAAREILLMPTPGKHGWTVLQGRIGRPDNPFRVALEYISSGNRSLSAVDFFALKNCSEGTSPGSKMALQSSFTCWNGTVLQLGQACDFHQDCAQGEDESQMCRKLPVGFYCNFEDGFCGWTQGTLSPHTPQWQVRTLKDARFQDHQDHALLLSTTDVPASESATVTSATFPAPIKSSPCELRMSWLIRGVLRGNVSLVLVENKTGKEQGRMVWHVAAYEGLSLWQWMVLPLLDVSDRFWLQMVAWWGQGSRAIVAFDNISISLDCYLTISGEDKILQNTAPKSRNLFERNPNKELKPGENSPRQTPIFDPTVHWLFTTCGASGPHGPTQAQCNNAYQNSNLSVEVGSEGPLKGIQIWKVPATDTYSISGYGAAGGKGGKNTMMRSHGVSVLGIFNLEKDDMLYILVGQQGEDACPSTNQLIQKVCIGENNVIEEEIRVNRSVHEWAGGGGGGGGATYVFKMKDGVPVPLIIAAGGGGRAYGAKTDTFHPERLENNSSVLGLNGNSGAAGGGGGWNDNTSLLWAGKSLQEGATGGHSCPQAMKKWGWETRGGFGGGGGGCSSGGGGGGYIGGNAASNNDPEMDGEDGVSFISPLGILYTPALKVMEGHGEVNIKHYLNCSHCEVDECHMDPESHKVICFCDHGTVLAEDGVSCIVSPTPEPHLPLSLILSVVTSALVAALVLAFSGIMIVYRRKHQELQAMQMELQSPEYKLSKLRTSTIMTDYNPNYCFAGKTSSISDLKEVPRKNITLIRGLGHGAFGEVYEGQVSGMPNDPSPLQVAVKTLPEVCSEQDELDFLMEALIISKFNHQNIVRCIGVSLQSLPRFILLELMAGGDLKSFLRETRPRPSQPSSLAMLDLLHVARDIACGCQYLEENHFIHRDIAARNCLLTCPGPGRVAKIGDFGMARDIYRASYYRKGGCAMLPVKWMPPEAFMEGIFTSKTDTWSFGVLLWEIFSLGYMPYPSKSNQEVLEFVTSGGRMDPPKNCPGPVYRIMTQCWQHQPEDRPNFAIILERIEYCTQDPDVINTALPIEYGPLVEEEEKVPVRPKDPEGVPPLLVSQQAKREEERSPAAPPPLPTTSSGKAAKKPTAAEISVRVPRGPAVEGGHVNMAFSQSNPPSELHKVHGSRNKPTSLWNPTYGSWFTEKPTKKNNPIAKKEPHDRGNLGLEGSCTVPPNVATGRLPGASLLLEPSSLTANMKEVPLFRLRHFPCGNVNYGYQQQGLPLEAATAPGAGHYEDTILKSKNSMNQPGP
# UniProt P10398: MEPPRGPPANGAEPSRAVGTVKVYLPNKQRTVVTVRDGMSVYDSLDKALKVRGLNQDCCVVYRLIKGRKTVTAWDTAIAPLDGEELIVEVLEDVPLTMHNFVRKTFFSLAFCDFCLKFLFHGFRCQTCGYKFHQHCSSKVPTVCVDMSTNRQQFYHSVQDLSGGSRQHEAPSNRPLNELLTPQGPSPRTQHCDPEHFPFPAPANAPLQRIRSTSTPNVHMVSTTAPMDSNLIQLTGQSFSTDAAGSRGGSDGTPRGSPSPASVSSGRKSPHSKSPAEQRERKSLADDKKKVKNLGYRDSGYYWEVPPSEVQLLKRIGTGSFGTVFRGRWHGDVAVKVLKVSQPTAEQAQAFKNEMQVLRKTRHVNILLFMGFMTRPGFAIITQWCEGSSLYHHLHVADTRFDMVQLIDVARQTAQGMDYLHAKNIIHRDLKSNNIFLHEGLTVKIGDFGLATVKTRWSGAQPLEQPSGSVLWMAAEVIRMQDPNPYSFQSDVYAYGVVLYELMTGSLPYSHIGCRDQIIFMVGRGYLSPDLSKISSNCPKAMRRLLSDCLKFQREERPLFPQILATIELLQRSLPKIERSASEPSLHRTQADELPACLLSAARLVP
# UniProt O14965: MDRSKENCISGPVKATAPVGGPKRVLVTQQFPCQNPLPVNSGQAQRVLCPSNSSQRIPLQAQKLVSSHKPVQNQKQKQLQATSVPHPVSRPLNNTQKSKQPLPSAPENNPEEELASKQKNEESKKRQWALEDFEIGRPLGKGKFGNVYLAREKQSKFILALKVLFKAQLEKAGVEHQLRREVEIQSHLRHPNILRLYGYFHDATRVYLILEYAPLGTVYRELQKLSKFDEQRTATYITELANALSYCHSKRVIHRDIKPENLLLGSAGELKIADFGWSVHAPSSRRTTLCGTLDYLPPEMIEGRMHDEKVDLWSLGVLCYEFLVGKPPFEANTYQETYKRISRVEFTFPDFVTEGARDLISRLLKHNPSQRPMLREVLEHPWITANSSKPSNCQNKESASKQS
# UniProt Q96GD4, whole entry: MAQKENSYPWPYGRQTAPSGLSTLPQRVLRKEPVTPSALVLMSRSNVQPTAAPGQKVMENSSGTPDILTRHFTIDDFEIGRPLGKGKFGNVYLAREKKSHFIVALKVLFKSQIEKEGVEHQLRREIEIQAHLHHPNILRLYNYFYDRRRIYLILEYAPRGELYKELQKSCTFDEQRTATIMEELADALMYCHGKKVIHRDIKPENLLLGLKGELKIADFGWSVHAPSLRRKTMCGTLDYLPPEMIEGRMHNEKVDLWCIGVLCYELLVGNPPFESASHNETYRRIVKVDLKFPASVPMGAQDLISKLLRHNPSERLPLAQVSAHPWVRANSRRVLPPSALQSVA
# UniProt Q9UQB9: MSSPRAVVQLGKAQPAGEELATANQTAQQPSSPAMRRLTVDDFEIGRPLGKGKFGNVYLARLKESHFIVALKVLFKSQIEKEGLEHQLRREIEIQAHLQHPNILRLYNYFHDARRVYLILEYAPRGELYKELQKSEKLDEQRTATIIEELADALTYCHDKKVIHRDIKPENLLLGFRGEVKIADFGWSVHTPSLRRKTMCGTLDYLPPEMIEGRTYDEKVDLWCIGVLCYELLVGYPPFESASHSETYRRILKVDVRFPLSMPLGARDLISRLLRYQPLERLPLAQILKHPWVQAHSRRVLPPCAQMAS
# UniProt P51451: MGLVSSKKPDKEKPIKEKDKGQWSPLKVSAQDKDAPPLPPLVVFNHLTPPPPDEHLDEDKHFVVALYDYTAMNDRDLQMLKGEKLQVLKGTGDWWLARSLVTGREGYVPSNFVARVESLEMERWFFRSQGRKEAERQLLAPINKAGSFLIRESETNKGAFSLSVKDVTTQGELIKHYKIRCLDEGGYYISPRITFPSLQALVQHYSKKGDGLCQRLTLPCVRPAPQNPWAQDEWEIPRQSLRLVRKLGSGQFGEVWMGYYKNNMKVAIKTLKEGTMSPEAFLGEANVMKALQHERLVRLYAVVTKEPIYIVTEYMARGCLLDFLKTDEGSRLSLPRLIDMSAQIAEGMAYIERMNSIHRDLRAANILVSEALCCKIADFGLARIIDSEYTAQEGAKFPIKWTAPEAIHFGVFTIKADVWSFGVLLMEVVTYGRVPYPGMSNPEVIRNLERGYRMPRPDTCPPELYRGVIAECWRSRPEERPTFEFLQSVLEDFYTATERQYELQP
# UniProt P51813: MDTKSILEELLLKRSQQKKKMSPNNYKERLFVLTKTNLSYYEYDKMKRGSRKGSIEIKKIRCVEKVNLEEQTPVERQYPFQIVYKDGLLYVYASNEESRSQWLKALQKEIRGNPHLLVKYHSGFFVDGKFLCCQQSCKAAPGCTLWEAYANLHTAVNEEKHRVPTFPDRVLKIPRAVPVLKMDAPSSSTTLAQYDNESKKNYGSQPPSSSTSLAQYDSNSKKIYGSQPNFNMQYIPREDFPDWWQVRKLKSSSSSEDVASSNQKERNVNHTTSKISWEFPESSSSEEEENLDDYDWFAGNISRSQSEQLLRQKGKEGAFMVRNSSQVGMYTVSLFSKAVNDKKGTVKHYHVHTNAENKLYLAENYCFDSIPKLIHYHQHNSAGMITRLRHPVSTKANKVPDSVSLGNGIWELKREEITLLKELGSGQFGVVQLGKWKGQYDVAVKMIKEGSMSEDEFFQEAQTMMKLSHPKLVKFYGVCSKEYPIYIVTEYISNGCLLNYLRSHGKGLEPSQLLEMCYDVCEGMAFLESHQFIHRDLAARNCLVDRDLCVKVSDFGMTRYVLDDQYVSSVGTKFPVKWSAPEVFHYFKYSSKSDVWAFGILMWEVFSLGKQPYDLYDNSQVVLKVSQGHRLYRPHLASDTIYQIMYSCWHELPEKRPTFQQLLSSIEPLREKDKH
# The list shows a part of the results. The calls rarely recur for the same compound in another form.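 In K562 cells expressing nanoluciferase-fused kinases, luminescence was recorded at 4 h intervals between 2 and 18 h, normalized as percent of control with DMSO at 100% and a positive control at 0%. A significant (2 sigma) signal drop marks a time point as decreased. The authors' rule for a hit is not shown and takes in more than the number of time points.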
# Key:
# Experiment in all cases: kinase-Nluc reporter destabilization hit call (1 = scored as downregulated) (binary); higher = compound decreases kinase abundance
# Conditions in all cases: K562; 2-18 h
# ABL1 = ABL1 (UniProt P00519)
# AKT1 = AKT1 (UniProt P31749)
# ALK = ALK (UniProt Q9UM73)
# ARAF = ARAF (UniProt P10398)
# AURKA = AURKA (UniProt O14965)
# AURKB = AURKB (UniProt Q96GD4)
# AURKC = AURKC (UniProt Q9UQB9)
# BLK = BLK (UniProt P51451)
# BMX = BMX (UniProt P51813)
# BRAF = BRAF (UniProt P15056)
Compound,kinase-Nluc reporter destabilization hit call (ABL1),kinase-Nluc reporter destabilization hit call (AKT1),kinase-Nluc reporter destabilization hit call (ALK),kinase-Nluc reporter destabilization hit call (ARAF),kinase-Nluc reporter destabilization hit call (AURKA),kinase-Nluc reporter destabilization hit call (AURKB),kinase-Nluc reporter destabilization hit call (AURKC),kinase-Nluc reporter destabilization hit call (BLK),kinase-Nluc reporter destabilization hit call (BMX),kinase-Nluc reporter destabilization hit call (BRAF)
Brc1ccc(CSc2nc3ccccc3o2)cc1 [BMP signaling agonist sb4] (10 µM),inactive: 0,inactive: 0,inactive: 0,inactive: 0,inactive: 0,inactive: 0,inactive: 0,inactive: 0,inactive: 0,inactive: 0
COc1c(O)cc2oc(-c3ccc(O)cc3)cc(=O)c2c1O [Hispidulin] (10 µM),inactive: 0,inactive: 0,inactive: 0,inactive: 0,inactive: 0,inactive: 0,inactive: 0,inactive: 0,inactive: 0,inactive: 0
COc1cc2nccc(Oc3ccc(NC(=O)c4cn(C(C)C)c(=O)n(-c5ccc(F)cc5)c4=O)cc3F)c2cc1OC (0.5 µM),inactive: 0,inactive: 0,inactive: 0,inactive: 0,inactive: 0,inactive: 0,inactive: 0,inactive: 0,inactive: 0,inactive: 0
CCN(CC)CCOc1ccc(Nc2nc(-c3ccccc3NC(=O)CCN3CCN(C)CC3)nc3ccccc23)cc1 (2.5 µM),inactive: 0,inactive: 0,inactive: 0,inactive: 0,inactive: 0,inactive: 0,inactive: 0,inactive: 0,inactive: 0,inactive: 0
CC(C)=CC[C@@H](O)C1=CC(=O)c2c(O)ccc(O)c2C1=O [Shikonin] (10 µM),inactive: 0,inactive: 0,inactive: 0,inactive: 0,inactive: 0,inactive: 0,inactive: 0,inactive: 0,inactive: 0,inactive: 0
CC(C)[C@H](CO)Nc1nc(Nc2cccc(Cl)c2)c2ncn(C(C)C)c2n1 [Purvalanol A] (10 µM),inactive: 0,inactive: 0,inactive: 0,inactive: 0,inactive: 0,inactive: 0,inactive: 0,inactive: 0,inactive: 0,active: 1
CC(C)(C)Cc1[nH]nc2c1[C@@](C)(c1ccccc1)C1=C(CC(C)(C)CC1=O)N2 (10 µM),inactive: 0,inactive: 0,inactive: 0,inactive: 0,inactive: 0,inactive: 0,inactive: 0,inactive: 0,inactive: 0,inactive: 0
CC(C)n1ncnc1-c1cn2c(n1)-c1ccc(O[C@@H](C)C(N)=O)cc1OCC2 (10 µM),inactive: 0,inactive: 0,inactive: 0,inactive: 0,inactive: 0,inactive: 0,inactive: 0,inactive: 0,inactive: 0,inactive: 0
CCc1c[nH]c2ncnc(N3CC[C@](N)(CNC(=O)c4ccc(F)cc4F)C3)c12 (10 µM),inactive: 0,inactive: 0,inactive: 0,inactive: 0,inactive: 0,inactive: 0,inactive: 0,inactive: 0,inactive: 0,inactive: 0
CN1CCC(CNc2ccc3ncc(-c4cccc(OC(F)(F)F)c4)n3n2)CC1 (2.5 µM),inactive: 0,inactive: 0,inactive: 0,inactive: 0,inactive: 0,inactive: 0,inactive: 0,inactive: 0,inactive: 0,inactive: 0
N#Cc1ccc(-c2cnc3[nH]cc(NC(=O)c4cccnc4)c3c2)cc1 (10 µM),inactive: 0,inactive: 0,inactive: 0,inactive: 0,inactive: 0,inactive: 0,inactive: 0,inactive: 0,inactive: 0,inactive: 0
CNC(=O)CNc1cnc2ccc(-c3ccc(OC)c(OC)c3)cc2n1 (10 µM),inactive: 0,inactive: 0,inactive: 0,inactive: 0,inactive: 0,inactive: 0,inactive: 0,inactive: 0,inactive: 0,inactive: 0
Cn1ncc(NC(=O)c2nc(-c3c(F)cccc3F)sc2N)c1N1CC[C@@H](N)[C@H](F)CC1 (10 µM),inactive: 0,inactive: 0,inactive: 0,inactive: 0,inactive: 0,inactive: 0,inactive: 0,inactive: 0,inactive: 0,inactive: 0
O=C(c1cccc(Cl)c1F)N1CCN(Cc2cccc(Nc3nccs3)n2)CC1 (2.5 µM),inactive: 0,inactive: 0,inactive: 0,inactive: 0,inactive: 0,inactive: 0,inactive: 0,inactive: 0,inactive: 0,inactive: 0
COc1cc2ncnc(Oc3ccc(CC(=O)Nc4cnn(C(C)C)c4)cc3)c2cc1OC (10 µM),inactive: 0,inactive: 0,inactive: 0,inactive: 0,inactive: 0,inactive: 0,inactive: 0,inactive: 0,inactive: 0,inactive: 0

# Pulled one by one from above:
Compound,kinase-Nluc reporter destabilization hit call (ABL1),kinase-Nluc reporter destabilization hit call (AKT1),kinase-Nluc reporter destabilization hit call (ALK),kinase-Nluc reporter destabilization hit call (ARAF),kinase-Nluc reporter destabilization hit call (AURKA),kinase-Nluc reporter destabilization hit call (AURKB),kinase-Nluc reporter destabilization hit call (AURKC),kinase-Nluc reporter destabilization hit call (BLK),kinase-Nluc reporter destabilization hit call (BMX),kinase-Nluc reporter destabilization hit call (BRAF)
CC(C)=CC[C@@H](O)C1=CC(=O)c2c(O)ccc(O)c2C1=O [Shikonin] (10 µM),inactive: 0,inactive: 0,inactive: 0,inactive: 0,inactive: 0,inactive: 0,inactive: 0,inactive: 0,inactive: 0,inactive: 0
N#Cc1ccc(-c2cnc3[nH]cc(NC(=O)c4cccnc4)c3c2)cc1 (10 µM),inactive: 0,inactive: 0,inactive: 0,inactive: 0,inactive: 0,inactive: 0,inactive: 0,inactive: 0,inactive: 0,inactive: 0
